# Library screening results

Measurements from “University of Dundee, Small-Polar-MMV Screening Library” (2021), ChEMBL document CHEMBL3988442.

The filed quantity is “Percent Effect” (%).
The controls that fix the scale are not given in the record; negative values are as filed.
The compounds are a random part of those screened.
A dash means the value is not listed here; it may have been measured.

Mtb growth Cornell: 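Whole-cell assay for inhibitors of Mycobacterium tuberculosis growth, labelled Cornell in the record; the read-out is not stated. The concentration is filed as 10 mM, unlikely as a test dose, so the dose is not known. The record gives no direction; compounds strong in two other growth screens of this library score well above the rest, so higher reads as stronger inhibition. Size under these conditions: about 53,000 compounds, about 900 of them at 50% or above in at least one test.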
Mtb heat-shock: 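Assay on Mycobacterium tuberculosis, filed only as a heat shock assay from Cornell; the read-out is not stated. The concentration is filed as 10 mM, unlikely as a test dose, so the dose is not known. The record gives no direction; compounds that gave an IC50 in retests scored well above the rest, so higher reads as stronger inhibition. Size under these conditions: about 69,000 compounds, about 930 of them at 50% or above in at least one test.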

compound	Mtb growth Cornell	Mtb heat-shock
CN(CC(C)(C)C)S(=O)(=O)c1ccc(C(F)(F)F)nc1	5.842%	-15.92%
Cc1cnn(CCNCc2csc(-c3ccsc3)n2)c1	-	107.8%
O=C(c1ccc2c(c1)COC2)N1CCC(Nc2cccnn2)CC1	13%	19.79%
Cc1noc(C)c1-c1cncc(C2CCCN2Cc2ncc[nH]2)n1 (stereo not drawn)	-37.72%	-27.58%
O=C(O)C(F)(F)F.O=C1CCCN1Cc1nnc2n1CCN(Cc1ccoc1)CC2	0.03279%	-24.4%
COCCCN(Cc1ccc(F)cc1Cl)C1CCS(=O)(=O)C1 (stereo not drawn)	13%	2.968%
CN(C)C(=O)CN1CCCC(CCCc2ccccn2)(C(N)=O)C1 (stereo not drawn)	-27.79%	-22.6%
Cc1nc(N2CCCC2)nc2c1CCN(C(=O)NC1CCCC1)CC2	2.924%	-17.48%
CC(=O)N1CCC(c2cncc(N3CCC(O)C3)n2)CC1 (stereo not drawn)	-10.71%	6.198%
CC(C(=O)N1CCC(Nc2cccnn2)CC1)n1cccn1 (stereo not drawn)	-51.93%	-31.65%
O=C(O)C(F)(F)F.O=C(O)C(F)(F)F.[H][C@@]12C[C@@H](C(=O)NC)N(C(C)=O)[C@]1([H])CN(Cc1ccc(C)s1)C2	-10.27%	5.878%
O=C(CCn1ccnc1)N1CC[C@H](Oc2ccc(F)cc2)[C@@H](O)CC1	7.331%	-6.559%
O=C(NCCc1cscn1)c1coc(CN2CCOCC2)c1	-	-24.34%
[H][C@]12C[C@H](C(=O)NC)N(S(C)(=O)=O)[C@@]1([H])CN(C(=O)c1ccc(C)o1)C2	18.79%	-3.641%
CC(C)NC(=O)COc1ccc(-c2nc(C(C)C)no2)cc1	36.52%	20.89%
CC(C)(O)CN1CCN(C(=O)c2cccc3[nH]ncc23)CC1	-4.235%	-3.903%
CS(=O)(=O)c1ccc(-c2cc(C3CC3)c(C#N)c(N)n2)cc1	-	-2.313%
CN(C)C(=O)c1nc(CN2CC(Cc3ccccc3)CC2=O)no1 (stereo not drawn)	20.44%	-19.14%
Cc1ccc(-n2nnc(C(=O)NCC3CCCCC3)n2)cc1	32.3%	10.71%
Cc1n[nH]c(C)c1-c1nccnc1CC1CCCN(C)C1 (stereo not drawn)	10.13%	-1.548%
O=C(O)c1cc(-c2cc[nH]n2)cc(S(=O)(=O)N2CCCCCC2)c1	-6.065%	-3.229%
Cc1c(C)n(Cc2ccncc2)c2nc3c(c(N)c12)CCCC3	-39.2%	20.58%
CN1CCCN(C(=O)c2cc(CN(C)CCc3ccccc3)on2)CC1	8.309%	-69.39%
O=c1[nH]cnc2[nH]c(N3CCNCC3)nc12	24.87%	19.51%
CCOc1ccc(C(=O)N(CCOC)Cc2c(C)nn(CC)c2C)o1	-46.22%	20.89%
CN(C)C(=O)N1CCC2(CC1)CN(Cc1ccccn1)C(=O)CO2.O=C(O)C(F)(F)F	-	-0.5573%
CSC(C)(C)CNC(=O)NCCC1CCN(C)CC1	-21.93%	15.63%
CNc1cc(C)nc(N2C[C@H](NC(=O)C3CCOCC3)[C@@H](C3CC3)C2)n1	-	-14.99%
Cc1occc(=O)c1OCc1noc(C(=O)NC(C)C)n1	8.254%	6.905%
COC1CCN(c2ccc(NC(=O)C3CC3)cc2C(F)(F)F)CC1	23.7%	33.12%
Cn1ccnc1CN1CCCC1Cn1cccn1 (stereo not drawn)	-	15.48%
O=C(NCc1ccccc1F)N1CCCCC1C1OCCO1 (stereo not drawn)	-	-5.676%
Cn1ncnc1NS(=O)(=O)c1ccccc1	20.84%	-2.455%
COc1cccc(CNc2cnn(CC(F)F)c2)c1	10.25%	-2.185%
CC(C)c1nc(C2CCCN2Cc2cc(=O)n(C)c(=O)n2C)no1 (stereo not drawn)	-21.06%	-7.517%
CCNC(=O)CN1CCCN(C(=O)C2CCCc3[nH]ncc32)CC1 (stereo not drawn)	4.545%	-0.8164%
CCn1nc2c(cc1=O)CN(Cc1nc3ccccc3o1)CC2	10.49%	0.8244%
CC(Cn1cncn1)NCc1nncn1C1CCCCC1 (stereo not drawn)	5.577%	6.348%
CC(=O)NC1CCN(c2nc(N)nc3c2CCCC3)C1 (stereo not drawn)	-3.898%	-8.267%
[H][C@@]12COC[C@]1(CNS(C)(=O)=O)CN(C(=O)C1CCSCC1)C2	-3.251%	7.378%
CC(C)c1nc(CN2CCCCC2Cn2cncn2)cs1 (stereo not drawn)	-12.94%	-10.99%
COC1COC2(CCN(Cc3ccccc3C)CC2)C1.O=C(O)C(F)(F)F (stereo not drawn)	5.122%	-12.48%
Cc1nnc2n1CCN(CCCS(=O)(=O)c1ccccc1)C2	-	-11.17%
CN(C)c1ccc(NC(=O)NCc2cccs2)cn1	-	-23.69%
Cc1cc(CN2CCN(C(=O)NCc3ccco3)CC2)no1	-	0.8299%
Cc1cc(C)n(CC2CN(CC(=O)NC(C3CC3)C3CC3)CCO2)n1 (stereo not drawn)	-31.15%	-8.333%
CC(c1ccc(F)cc1)N1CCN(Cc2ccc(C#N)cc2)CC1 (stereo not drawn)	11.16%	8.661%
COc1c(C(=O)NCc2cccnc2)nnn1Cc1ccc(C)cc1	-	0.09704%
O=C1CCCc2[nH]c(=O)c(C(=O)N(CC3CCCCC3)C3CC3)cc21	3.886%	-11.03%
CCN(CCCN1CCOCC1)C(=O)c1cnn(CC)c1	10.67%	13.91%
O=S(=O)(NCC1CCN(c2cnccn2)CC1)c1ccc(F)c(Cl)c1	-	6.783%
[H][C@]12CCN(c3cc(C)ccn3)C[C@]1(COC)CC[C@@H](N1CCOCC1)C2	-	8.084%
CC(C)OCCCNC(=O)CS(=O)(=O)Cc1ccc(C(C)(C)C)cc1	-	-6.349%
CC(C)(C)c1cn(C2CCN(C(=O)c3cncnc3)CC2)nn1	-21.11%	-3.075%
Cc1cc(C)n(C2CN(CC(O)c3ccc(F)cc3)C2)n1 (stereo not drawn)	-35.76%	22.93%
CN(c1ncccc1CNCc1ncc[nH]1)C1CCCCC1	-38.61%	21.89%
CN(C)C(=O)CN1CCC2(CCCN(Cc3ccsc3)C2)C1=O (stereo not drawn)	9.13%	7.465%
CC(C)CCN1CCC2(CC1)CN(C(=O)c1cnccn1)CCO2.O=C(O)C(F)(F)F	33.7%	1.788%
O=C(O)C(F)(F)F.[H][C@@]12COC[C@]1(COCC(=O)N(C)C)CN(CCc1ccccc1)C2	-	-8.428%
CCN1CCn2cc(CNC(=O)c3cnn(C)c3)nc2C1.O=C(O)C(F)(F)F.O=C(O)C(F)(F)F	-14.36%	-35.96%
O=C(O)C(F)(F)F.O=C(O)C(F)(F)F.O=C1N(Cc2cccnc2)CCC12CCCN(c1ncccn1)C2 (stereo not drawn)	-30.52%	-23.49%
CCC(=O)N1CCCC1c1n[nH]cc1-c1ccccc1F (stereo not drawn)	2.012%	-11.78%
O=C(NCCn1ccnc1)c1csc2c1CCCC2	-	-7.64%
CC(C)CNC(=O)C1=NOC2(CCN(Cc3cccc(C#N)c3)C2)C1 (stereo not drawn)	18.56%	3.464%
CC(C)NS(=O)(=O)c1cc(C(=O)O)cc(-c2ccccc2F)c1	-	26.97%
O=C(Nc1cnn(CC(=O)N2CCCO2)c1)c1ccccc1	-35.24%	-21.03%
Cc1noc(CN2CCOC(CN(C)C)C2)n1 (stereo not drawn)	-21.29%	-29.55%

8 of the entries, repeated:

compound	Mtb growth Cornell	Mtb heat-shock
O=C(CCn1ccnc1)N1CC[C@H](Oc2ccc(F)cc2)[C@@H](O)CC1	7.331%	-6.559%
O=C(O)C(F)(F)F.O=C1CCCN1Cc1nnc2n1CCN(Cc1ccoc1)CC2	0.03279%	-24.4%
CC(C(=O)N1CCC(Nc2cccnn2)CC1)n1cccn1 (stereo not drawn)	-51.93%	-31.65%
Cc1noc(CN2CCOC(CN(C)C)C2)n1 (stereo not drawn)	-21.29%	-29.55%
CNc1cc(C)nc(N2C[C@H](NC(=O)C3CCOCC3)[C@@H](C3CC3)C2)n1	-	-14.99%
O=C(NCCc1cscn1)c1coc(CN2CCOCC2)c1	-	-24.34%
CC(=O)NC1CCN(c2nc(N)nc3c2CCCC3)C1 (stereo not drawn)	-3.898%	-8.267%
CC(C)CNC(=O)C1=NOC2(CCN(Cc3cccc(C#N)c3)C2)C1 (stereo not drawn)	18.56%	3.464%